PubChem BioAssay (NCATS)
Inconclusive results, whose numbers are uncertain, are shown with a selection of clear calls. For part of these data: Where the call is inconclusive, the potency comes from a doubtful curve fit. The source made the active and inactive calls. Calls come from the whole dose curve; as a rule, active = well fitted curve in the direction sought with a large enough effect; inconclusive = small, poorly fitted or top-dose-only effect, or another doubt; inactive = no such curve, though single readings can be large; an effect the other way counts as inactive or inconclusive.

Legend:
[1] = Quantitative High-Throughput drug screen in 47 multiple myeloma cell lines against the NCATS MIPE library collection: FR4_PLB cell viability assay (AID 1918924; note: nearly all actives have a fitted effect of over 35% in size)
In short: (§1)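 Inhibition of cell viability is measured here. Each line was plated at 500 cells per well, treated with MIPE 4.0 drugs, kept 48 hours at 37C, then assayed for ATP content by CellTiter-Glo luminescence.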

[2] = Quantitative High-Throughput drug screen in 47 multiple myeloma cell lines against the NCATS MIPE library collection: EJM_DSMZ cell viability assay (AID 1918926; note: nearly all actives have a fitted effect of over 30% in size)
In short: (§2)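 CellTiter-Glo luminescence (ATP) after 48 h compound exposure, 37C/5% CO2; 500 cells/well; MIPE 4.0 approved/investigational drugs pinned in; DMSO = 100%, media only = 0% viability.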

[3] = Quantitative High-Throughput drug screen in 47 multiple myeloma cell lines against the NCATS MIPE library collection: AMO1_DSMZ cell viability assay (AID 1918927; note: nearly all actives have a fitted effect of over 30% in size)
In short: as §2

[4] = Quantitative High-Throughput drug screen in 47 multiple myeloma cell lines against the NCATS MIPE library collection: ARP1_JJKsccF8 cell viability assay (AID 1918928; note: nearly all actives have a fitted effect of over 40% in size)
In short: (§3)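 Myeloma cells at 500 per well in 1536-well format treated with MIPE 4.0 library by pin transfer for 48 h at 37C, 5% CO2. Viability from ATP luminescence (CellTiter-Glo), normalized to DMSO (100%) and media-only (0%) wells.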

[5] = Quantitative High-Throughput drug screen in 47 multiple myeloma cell lines against the NCATS MIPE library collection: ARD_JJKsccE7 cell viability assay (AID 1918929); conditions: ARD myeloma cell line viability, CellTiter-Glo, 48 h; viability: at 45.8 µM (top of the series)
In short: as §2

[6] = Quantitative High-Throughput drug screen in 47 multiple myeloma cell lines against the NCATS MIPE library collection: KMM1_JCRB cell viability assay (AID 1918960); conditions: KMM1 myeloma viability, CellTiter-Glo ATP luminescence, 48 h; viability (% of DMSO): at 45.8 µM (top of the series); note: nearly all actives have a fitted effect of over 30% in size
In short: as §3

[7] = Quantitative High-Throughput drug screen in 47 multiple myeloma cell lines against the NCATS MIPE library collection: Karpas417_ECACC cell viability assay (AID 1918961); conditions: Karpas417 myeloma viability, CellTiter-Glo ATP luminescence, 48 h; viability (% of DMSO): at 45.8 µM (top of the series)
In short: (§4)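 qHTS of the MIPE 4.0 collection: 500 myeloma cells/well, 48 h drug exposure at 37C in 5% CO2, then CellTiter-Glo for 5 min at room temperature before luminescence reading.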

[8] = Quantitative High-Throughput drug screen in 47 multiple myeloma cell lines against the NCATS MIPE library collection: KHM11_PLB cell viability assay (AID 1918962); conditions: KHM11 myeloma cell viability, CellTiter-Glo ATP luminescence, 48 h; viability, % of DMSO control: at 45.8 µM (top of the series); note: nearly all actives have a fitted effect of over 35% in size
In short: as §1

[9] = Quantitative High-Throughput drug screen in 47 multiple myeloma cell lines against the NCATS MIPE library collection: JIM3_ECACC cell viability assay (AID 1918963; note: nearly all actives have a fitted effect of over 35% in size)
In short: as §1

[10] = Quantitative High-Throughput drug screen in 47 multiple myeloma cell lines against the NCATS MIPE library collection: JJN3_DSMZ cell viability assay (AID 1918966; note: nearly all actives have a fitted effect of over 50% in size); conditions: JJN3 myeloma cells viability, CellTiter-Glo ATP, 48 h; viability, % of DMSO: at 45.8 µM (top of the series)
In short: as §2

[11] = Quantitative High-Throughput drug screen in 47 multiple myeloma cell lines against the NCATS MIPE library collection: H1112_PLB cell viability assay (AID 1918967; note: nearly all actives have a fitted effect of over 30% in size)
In short: as §2

[12] = Quantitative High-Throughput drug screen in 47 multiple myeloma cell lines against the NCATS MIPE library collection: Delta47_JCRB cell viability assay (AID 1918925; note: nearly all actives have a fitted effect of over 45% in size); conditions: Delta47 myeloma viability, CellTiter-Glo ATP, 48 h; viability (% of DMSO): at 45.8 µM (top of the series)
In short: as §2

[13] = Quantitative High-Throughput drug screen in 47 multiple myeloma cell lines against the NCATS MIPE library collection: JIM1_ECACC cell viability assay (AID 1918964); conditions: JIM1 myeloma viability, CellTiter-Glo ATP luminescence, 48 h; viability (% of DMSO): at 45.8 µM (top of the series)
In short: as §2

[14] = Quantitative High-Throughput drug screen in 47 multiple myeloma cell lines against the NCATS MIPE library collection: INA6_PLB cell viability assay (AID 1918965; note: nearly all actives have a fitted effect of over 55% in size); conditions: INA6 myeloma viability, CellTiter-Glo ATP luminescence, 48 h; viability (% of control): at 45.8 µM (top of the series)
In short: as §4

[15] = Quantitative High-Throughput drug screen in 47 multiple myeloma cell lines against the NCATS MIPE library collection: Karpas25_ECACC cell viability assay (AID 1918968; note: nearly all actives have a fitted effect of over 35% in size); conditions: Karpas25 myeloma viability, CellTiter-Glo ATP, 48 h; viability (% of control): at 45.8 µM (top of the series)
In short: as §2

[16] = Quantitative High-Throughput drug screen in 47 multiple myeloma cell lines against the NCATS MIPE library collection: KMS27_JCRB cell viability assay (AID 1918970); conditions: KMS27 myeloma cells, CellTiter-Glo ATP viability, 48 h; viability (% of DMSO): at 45.8 µM (top of the series); note: nearly all actives have a fitted effect of over 30% in size
In short: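 Each line is seeded at 500 cells per well and treated with library compounds for 48 hours under 37 °C, 5% CO2. CellTiter-Glo is then added for 5 min at room temperature before median relative luminescence is recorded.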

[17] = Quantitative High-Throughput drug screen in 47 multiple myeloma cell lines against the NCATS MIPE library collection: Karpas620_DSMZ cell viability assay (AID 1918959); conditions: Karpas620 myeloma viability, CellTiter-Glo ATP luminescence, 48 h; viability (% of DMSO): at 45.8 µM (top of the series); note: nearly all actives have a fitted effect of over 30% in size
In short: as §1
Potency is the fitted concentration of half-maximal effect.

SMILES	Potency [1]	Potency [2]	Potency [3]	Potency [4]	Potency [5]	Potency [6]	Potency [7]	Potency [8]	Potency [9]	Potency [10]	Potency [11]	Potency [12]	Potency [13]	Potency [14]	Potency [15]	Potency [16]	Potency [17]	viability (% of DMSO) [17]	viability (% of DMSO) [6]	viability (% of DMSO) [13]
C[C@H](NC(=O)c1sccc1OCc1ccc(Cl)cc1)c1ccccc1	inconclusive: 26.4 µM [cytotoxic, partial curve, poor fit]	inconclusive: 1.48 µM [cytotoxic, full curve, poor fit]	inconclusive: 0.0019 µM [cytotoxic, full curve, poor fit]	inconclusive: 26.4 µM [cytotoxic, single point]	inactive	inactive	inconclusive: 10.5 µM [rising, full curve, poor fit]	inconclusive: 37.2 µM [cytotoxic, single point]	inconclusive: 20.9 µM [cytotoxic, partial curve]	inconclusive: 18.7 µM [cytotoxic, partial curve, poor fit]	inconclusive: 18.7 µM [cytotoxic, partial curve]	–	–	–	–	–	–	–	–	–
Cc1c(OCC(F)(F)F)ccnc1CS(=O)c1nc2ccccc2[nH]1 (centres undefined)	inactive	–	inconclusive: 0.0132 µM [rising, full curve, poor fit]	inactive	inconclusive: 0.001 µM [cytotoxic]	–	–	inconclusive: 0.0187 µM [rising, full curve]	active: 16.6 µM	active: 2.64 µM	–	inconclusive: 29.6 µM [cytotoxic, single point]	inconclusive: 0.0012 µM [rising, full curve, poor fit]	inconclusive: 13.2 µM [cytotoxic, partial curve, poor fit]	inconclusive: 29.6 µM [cytotoxic, single point]	inactive	–	–	–	–
OCCC#Cc1nc(-c2ccc(F)cc2)c(-c2ccncc2)n1CCCc1ccccc1	inconclusive: 37.2 µM [cytotoxic, single point]	inconclusive: 37.2 µM [cytotoxic, single point]	active: 23.5 µM	inconclusive: 33.2 µM [cytotoxic, single point]	active: 16.6 µM	inconclusive: 3.72 µM [cytotoxic, partial curve, poor fit]	–	inconclusive: 37.2 µM [cytotoxic, single point]	–	inconclusive: 37.2 µM [cytotoxic, single point]	–	–	active: 13.2 µM	–	–	–	active: 20.9 µM	–	–	–
CC(C)c1ccc2oc3nc(N)c(C(=O)O)cc3c(=O)c2c1	inactive	–	–	inconclusive: 37.2 µM [cytotoxic, single point]	–	inconclusive: 23.5 µM [cytotoxic, single point]	inconclusive: 0.0053 µM [cytotoxic, full curve, poor fit]	inconclusive: 0.148 µM [rising, full curve, poor fit]	–	inactive	inactive	inconclusive: 37.2 µM [cytotoxic, single point]	inactive	inactive	–	–	–	–	–	–
COc1ccc(-c2coc3cc(O)ccc3c2=O)cc1	inconclusive: 5.9 µM [cytotoxic, partial curve, poor fit]	–	inconclusive: 0.0083 µM [cytotoxic, full curve, poor fit]	–	inactive	inconclusive: 23.5 µM [cytotoxic, partial curve, poor fit]	inactive	inconclusive: 16.6 µM [cytotoxic, partial curve, poor fit]	–	inactive	inactive	inconclusive: 0.0166 µM [cytotoxic, full curve, poor fit]	–	inactive	–	–	–	–	–	–
CC(=NNC(=S)N1CCC1)c1ccccn1	inconclusive: 0.0132 µM [cytotoxic, full curve]	–	active: 0.001 µM	inconclusive: 0.0019 µM [cytotoxic, full curve]	active: 0.001 µM	–	inactive	inconclusive: 0.0012 µM [cytotoxic, full curve]	inactive	inconclusive: 0.0059 µM [cytotoxic, full curve]	–	inconclusive: 0.0015 µM [cytotoxic, partial curve, poor fit]	–	inactive	inactive	–	–	inconclusive: 8.83% [cytotoxic]	inconclusive: 12% [cytotoxic]	inconclusive: 6.92% [cytotoxic]
O=C1NC(=O)C(c2ccccc2[N+](=O)[O-])=C1Nc1ccc(O)c(Cl)c1	inconclusive: 23.5 µM [cytotoxic, single point]	–	inconclusive: 20.9 µM [cytotoxic, partial curve]	–	inconclusive: 37.2 µM [cytotoxic, single point]	inconclusive: 37.2 µM [cytotoxic, single point]	inconclusive: 37.2 µM [cytotoxic, partial curve, poor fit]	inconclusive: 37.2 µM [cytotoxic, single point]	inconclusive: 26.4 µM [cytotoxic, single point]	inconclusive: 33.2 µM [cytotoxic, single point]	inactive	inconclusive: 18.7 µM [cytotoxic, partial curve]	inactive	inconclusive: 29.6 µM [cytotoxic, partial curve, poor fit]	–	inactive	inactive	–	–	–
C[C@H](Cc1ccc(O)c(O)c1)[C@@H](C)Cc1ccc(O)c(O)c1	active: 2.09 µM	inconclusive: 14.8 µM [cytotoxic, partial curve]	–	–	inconclusive: 11.8 µM [cytotoxic, single point]	inconclusive: 11.8 µM [cytotoxic, single point]	inconclusive: 1.66 µM [cytotoxic, partial curve, poor fit]	inconclusive: 37.2 µM [cytotoxic, single point]	inconclusive: 18.7 µM [cytotoxic, partial curve]	–	inconclusive: 20.9 µM [cytotoxic, partial curve]	–	inactive	active: 9.35 µM	–	–	active: 5.26 µM	–	–	–
Cc1ccccc1C(C(=O)NC1CCCCC1)N(C(=O)Cn1ccnc1C)c1cccc(F)c1 (centres undefined)	inconclusive: 37.2 µM [cytotoxic, single point]	inconclusive: 18.7 µM [cytotoxic, partial curve, poor fit]	inconclusive: 1.48 µM [cytotoxic, single point]	–	inconclusive: 37.2 µM [rising, single point]	–	inconclusive: 37.2 µM [rising, partial curve, poor fit]	inconclusive: 1.05 µM [cytotoxic, full curve, poor fit]	–	inconclusive: 29.6 µM [cytotoxic, partial curve, poor fit]	inconclusive: 7.43 µM [cytotoxic, partial curve, poor fit]	–	–	inactive	active: 18.7 µM	inactive	–	–	–	–
O=C(c1ccc(F)c(F)c1Nc1ccc(I)cc1F)N1CC(O)([C@H]2CCCCN2)C1	active: 20.9 µM	inconclusive: 33.2 µM [cytotoxic, single point]	active: 3.32 µM	inconclusive: 18.7 µM [cytotoxic, partial curve]	–	–	inconclusive: 1.05 µM [cytotoxic, full curve, poor fit]	active: 0.0372 µM	–	inconclusive: 29.6 µM [cytotoxic, single point]	–	–	inconclusive: 2.35 µM [cytotoxic, partial curve, poor fit]	–	–	–	active: 0.105 µM	–	–	–
CN(C(Cc1ccc(OS(=O)(=O)c2cccc3cnccc23)cc1)C(=O)N1CCN(c2ccccc2)CC1)S(=O)(=O)c1cccc2cnccc12 (centres undefined)	inconclusive: 16.6 µM [cytotoxic, partial curve]	inconclusive: 13.2 µM [cytotoxic, partial curve]	–	inconclusive: 6.62 µM [cytotoxic, full curve]	active: 5.9 µM	inconclusive: 1.66 µM [cytotoxic, full curve]	active: 4.18 µM	inconclusive: 0.0105 µM [rising, full curve, poor fit]	–	–	–	–	active: 1.87 µM	–	–	inconclusive: 10.5 µM [cytotoxic, full curve, poor fit]	–	–	–	–
CC(=O)N(C)C1(c2ccccc2)CCN(CCC[C@]2(c3ccc(Cl)c(Cl)c3)CCCN(C(=O)c3ccccc3)C2)CC1	inconclusive: 29.6 µM [cytotoxic, single point]	active: 20.9 µM	active: 10.5 µM	inconclusive: 29.6 µM [cytotoxic, single point]	–	active: 14.8 µM	inconclusive: 11.8 µM [cytotoxic, full curve, poor fit]	–	–	–	–	–	inconclusive: 20.9 µM [cytotoxic, partial curve, poor fit]	–	–	active: 23.5 µM	–	–	–	–
